Data reported in patent US20180193496A1.
Results are given in words; binding and its absence hold for the method and conditions named. Some binding calls cover weakened binding; strength is not graded here.

Sequences of proteins named here, by UniProt entry; tags and fusion partners are left off. Residues count along the entry.
UniProt P28862, residues 100-272: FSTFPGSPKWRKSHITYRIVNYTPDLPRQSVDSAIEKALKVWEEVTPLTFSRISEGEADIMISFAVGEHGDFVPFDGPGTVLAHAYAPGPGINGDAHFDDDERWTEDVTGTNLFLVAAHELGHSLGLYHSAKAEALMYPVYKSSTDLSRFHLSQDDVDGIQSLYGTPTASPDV
UniProt P03957, residues 98-270: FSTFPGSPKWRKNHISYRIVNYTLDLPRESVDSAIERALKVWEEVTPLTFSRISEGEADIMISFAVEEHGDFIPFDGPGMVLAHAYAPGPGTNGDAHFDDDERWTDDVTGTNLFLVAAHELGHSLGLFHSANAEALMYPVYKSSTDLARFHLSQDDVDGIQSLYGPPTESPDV

What was measured:
[1] = target: catalytic domain of mouse MMP3 (mouse) (UniProt P28862); assay: ELISA on biotinylated catalytic domain, scFv
[2] = target: catalytic domain of rat MMP3 (rat) (UniProt P03957); assay: ELISA on biotinylated catalytic domain, scFv
[3] = target: catalytic domain of mouse MMP3 (mouse) (UniProt P28862); assay: Biacore, catalytic domain on a CM5 chip, scFv

binding [1]: binds
binding [2]: binds
binding [3]: binds
B1: anti-human MMP3 antibody CH01 in scFv format (scFv, V domains shown)
VH: EVQLLESGGGLVQPGGSLRLSCAASGFTFSPYAMSWVRQAPGKGLEWVSAITGQGGVTYYADSVKGRFTISRDNSKNTLYLQMNSLRAEDTAVYYCAKISSFHFDYWGQGTLVTVSS
VL: EIVLTQSPGTLSLSPGERATLSCRASQSVSSHHLAWYQQKPGQAPRLLIYDASSRATGIPDRFSGSGSGTDFTLTISRLEPEDFAVYYCQQPRGAPTTFGQGTKVEIK
